Results published in US10350255B2, “Polygonum cuspidatum extracts” (priority 2015, dated 2019).
For at least one compound, name, drawing or mass did not settle the structure.

Tested on: microorganisms
Assay: Photodynamic inactivation by isolated fractions and commercial anthraquinones
Assay type: cell-based
Conditions: commercial samples of anthraquinones
Text: The anthraquinones, or their glycosylated derivatives, could be responsible for the photosensitizing effect of the extract. […] Commercial samples of anthraquinones produced photodynamic inactivation of microorganisms in the order emodin>physcion>rhein. In some P. cuspidatum extracts, the proportions of emodin and physcion are between 0.51-0.65% and 0.24-0.27% by weight, respectively.

## O=C(O)c1cc(O)c2c(c1)C(=O)c1cccc(O)c1C2=O [rhein, Rhein]
  Order of photodynamic inactivation of microorganisms: emodin>physcion>rhein
